In the supplement of paper PMC12067093, “Discovery and optimisation of a covalent ligand for TRIM25 and its application to targeted protein ubiquitination” (Chemical Science, 2025):
Some of the results follow.

Compound: CC1Cc2ccccc2N1C(=O)C1CCCN(C1)C(=O)CCl (mixture of isomers) [TRIM25 ligand 11 (diastereomer mixture)]
Experiment: probe-labelled cysteine peptide fold change vs DMSO (competition) (log2 fold change); higher = less target engagement (more negative = stronger competition)
Conditions: 10 µM; THP-1; incubation time: 4 h
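Note: competitive chemoproteomic profiling in live THP-1 cells with an iodoacetamide desthiobiotin (IA-DTB) probe, comparing probe-labelled peptide intensities in compound-treated cells against DMSO-treated controls.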

Target	probe-labelled cysteine peptide fold change
KIF13B_Q9NQT8_773_ECEEDNPVIR (UniProt Q9NQT8)	0.044
IVNS1ABP_Q9Y6Y0_387_TVECYNPHTDHWSFLAPMR (UniProt Q9Y6Y0)	0.0414
KIAA0391_O15091_367_TIESIQLSPEEYECLK (UniProt O15091)	0.105
ITSN2_Q9NZM3_907_AQALCSWTAK (UniProt Q9NZM3)	-0.0461
JMJD1C_Q15652_1935_SHCHCTNK (UniProt Q15652)	0.112
KDM4A_O75164_847_TAGCCVQCSHGR (UniProt O75164)	0.268
ITPR1_Q14643_530_LLQAPFTDCGDGPMLR (UniProt Q14643)	-0.0346
JOSD2_Q8TAC2_24_LELCAVHALNNVLQQQLFSQEAADEICKR (UniProt Q8TAC2)	-0.136
KDM1A_O60341_665_VVLCFDR (UniProt O60341)	0.0729
ITPR1_Q14643_2277_AQPVLYWCAR (UniProt Q14643)	-0.022
ITPR1_Q14643_292_ALWEVEVVQHDPCR (UniProt Q14643)	0.0538
KBTBD11_O94819_421_LLALDGHLYAVGGECLLSVER (UniProt O94819)	-0.0593
KDM3B_Q7LBC6_1034_EMCDVCETTLFNIHWVCR (UniProt Q7LBC6)	0.102
KDM3A_Q9Y4C1_947_RPQGLTIKPSILGFDTPHYWLCDNR (UniProt Q9Y4C1)	-0.0913
KDM3B_Q7LBC6_295_SASDSGCDPASKK (UniProt Q7LBC6)	-0.135
KBTBD11_O94819_384_PSDQVFCYNPATDSWSAVRPLR (UniProt O94819)	0.201
KAT2A_Q92830_695_KVYPGLSCFK (UniProt Q92830)	-0.198
KCTD12_Q96CX2_50_CTVVSVPDSLLWR (UniProt Q96CX2)	0.163
KDM1A_O60341_491_DLTALCK (UniProt O60341)	-0.0706

Target	probe-labelled cysteine peptide fold change
ITPR1_Q14643_253_FLTCDEHR (UniProt Q14643)	0.115
KHDC4_Q7Z7F0_116_SKDDLVVAEVEINDVPLTCR (UniProt Q7Z7F0)	-0.0549
KIF13B_Q9NQT8_26_CVVDVDANK (UniProt Q9NQT8)	-0.0423
JMJD1C_Q15652_2163_LYSDIPHSWICEK (UniProt Q15652)	0.00263
IVD_P26440_254_GSNTCELIFEDCK (UniProt P26440)	0.241
KIF15_Q9NS87_1284_EMECLR (UniProt Q9NS87)	-0.0637
JMJD1C_Q15652_508_CVIDITNDTNLEK (UniProt Q15652)	-0.0651
ITPK1_Q13572_391+403_LGCNAGVSPSFQQHCVASLATK (UniProt Q13572)	0.0751
ITPA_Q9BY32_33_KLEEVVQILGDKFPCTLVAQK (UniProt Q9BY32)	-0.34
KBTBD11_O94819_257_DAAYCFMSDHYLEVLR (UniProt O94819)	-0.00414
KBTBD11_O94819_537_QWSPCVAPLR (UniProt O94819)	0.0697
KARS_Q15046_463_LVGEFLEVTCINPTFICDHPQIMSPLAK (UniProt Q15046)	0.0115
KCNAB2_Q13303_248_IGVGAMTWSPLACGIVSGK (UniProt Q13303)	0.0997
ITPR3_Q14573_1387_CTSLLPLEDVVSVVTHEDCITEVK (UniProt Q14573)	0.242
KAT14_Q9H8E8_478_RLEACPGAVAMTPEAR (UniProt Q9H8E8)	0.0372
KIDINS220_Q9ULH0_1250_VLAQCNIDELKK (UniProt Q9ULH0)	-0.13
KDM5C_P41229_707_EAFELLPDDERQCIK (UniProt P41229)	0.0217
KDM2A_Q9Y2K7_477_CVPTGIEDEDALIADVK (UniProt Q9Y2K7)	-0.0307

Same assay, conditions: 50 µM; THP-1; incubation time: 4 h

Target	probe-labelled cysteine peptide fold change
KIF13B_Q9NQT8_773_ECEEDNPVIR (UniProt Q9NQT8)	-0.0606
IVNS1ABP_Q9Y6Y0_387_TVECYNPHTDHWSFLAPMR (UniProt Q9Y6Y0)	-0.182
KIAA0391_O15091_367_TIESIQLSPEEYECLK (UniProt O15091)	-0.118
ITSN2_Q9NZM3_907_AQALCSWTAK (UniProt Q9NZM3)	-0.0782
JMJD1C_Q15652_1935_SHCHCTNK (UniProt Q15652)	-0.0929
KDM4A_O75164_847_TAGCCVQCSHGR (UniProt O75164)	0.285
ITPR1_Q14643_530_LLQAPFTDCGDGPMLR (UniProt Q14643)	-0.31
JOSD2_Q8TAC2_24_LELCAVHALNNVLQQQLFSQEAADEICKR (UniProt Q8TAC2)	-0.0632
KDM1A_O60341_665_VVLCFDR (UniProt O60341)	0.282
ITPR1_Q14643_2277_AQPVLYWCAR (UniProt Q14643)	0.0127
ITPR1_Q14643_292_ALWEVEVVQHDPCR (UniProt Q14643)	-0.00117
KBTBD11_O94819_421_LLALDGHLYAVGGECLLSVER (UniProt O94819)	0.0685
KDM3B_Q7LBC6_1034_EMCDVCETTLFNIHWVCR (UniProt Q7LBC6)	0.168
KDM3A_Q9Y4C1_947_RPQGLTIKPSILGFDTPHYWLCDNR (UniProt Q9Y4C1)	-0.0656
KDM3B_Q7LBC6_295_SASDSGCDPASKK (UniProt Q7LBC6)	-0.229
KBTBD11_O94819_384_PSDQVFCYNPATDSWSAVRPLR (UniProt O94819)	0.0594
KAT2A_Q92830_695_KVYPGLSCFK (UniProt Q92830)	-0.309
KCTD12_Q96CX2_50_CTVVSVPDSLLWR (UniProt Q96CX2)	-0.187
KDM1A_O60341_491_DLTALCK (UniProt O60341)	0.259

Target	probe-labelled cysteine peptide fold change
ITPR1_Q14643_253_FLTCDEHR (UniProt Q14643)	0.0628
KHDC4_Q7Z7F0_116_SKDDLVVAEVEINDVPLTCR (UniProt Q7Z7F0)	-0.242
KIF13B_Q9NQT8_26_CVVDVDANK (UniProt Q9NQT8)	0.0732
JMJD1C_Q15652_2163_LYSDIPHSWICEK (UniProt Q15652)	-0.0464
IVD_P26440_254_GSNTCELIFEDCK (UniProt P26440)	0.23
KIF15_Q9NS87_1284_EMECLR (UniProt Q9NS87)	0.00528
JMJD1C_Q15652_508_CVIDITNDTNLEK (UniProt Q15652)	-0.268
ITPK1_Q13572_391+403_LGCNAGVSPSFQQHCVASLATK (UniProt Q13572)	-0.372
ITPA_Q9BY32_33_KLEEVVQILGDKFPCTLVAQK (UniProt Q9BY32)	-0.182
KBTBD11_O94819_257_DAAYCFMSDHYLEVLR (UniProt O94819)	-0.135
KBTBD11_O94819_537_QWSPCVAPLR (UniProt O94819)	0.14
KARS_Q15046_463_LVGEFLEVTCINPTFICDHPQIMSPLAK (UniProt Q15046)	-0.0242
KCNAB2_Q13303_248_IGVGAMTWSPLACGIVSGK (UniProt Q13303)	-0.115
ITPR3_Q14573_1387_CTSLLPLEDVVSVVTHEDCITEVK (UniProt Q14573)	0.194
KAT14_Q9H8E8_478_RLEACPGAVAMTPEAR (UniProt Q9H8E8)	0.00248
KIDINS220_Q9ULH0_1250_VLAQCNIDELKK (UniProt Q9ULH0)	0.135
KDM5C_P41229_707_EAFELLPDDERQCIK (UniProt P41229)	0.014
KDM2A_Q9Y2K7_477_CVPTGIEDEDALIADVK (UniProt Q9Y2K7)	-0.0701
